# According to the supplement of paper PMC11438910:
# The list shows a part of the results. Only a few entries rise above the background.
# B1: 4-80.3 (protein)
# chain 1: QVQLQESGPGLVKPSETLSLTCAVSGGSFSSYWWSWIRQPPGKGLEWIGEINGNSGSTNYNPSLKSRVTISKDASKNQFSLKLSSVTAADTAVYYCARYKNVWGRGVLVTVSS
# chain 2: DVVMTQSPLSLPITPGQPASISCRSSQSLVHSNGNTYLSWYQQKPGQPPRRLIYQVSNRDSGVPDRFSGSGAGTDFTLKISRVEAEDVGVYYCGQGTNVPTFGQGTKVEIK
# B2: 4-127.1 (protein)
# chain 1: QVQLQESGPGLVKPSETLSLTCAVSDYSINTGHGWTWIRQPPGKGLEWIGYIGGSSGSPNYNPSLKSRVTISKDTSKNELSLKLNSVTAADTAVYYCARRIPADRSGNDFWGQGVLVTVSS
# chain 2: QSVLTQPPSVSGDPGQRVTISCTGSSSNIGGFYGYWYQQFPGTAPKLLIYDNNKRPSGISDRFSGSKSGTSASLTITGLQPGDEADYYCGSWDSSLSAHVFGSGTKLTVL
# Assays:
# Experiment in all cases: fluorescence intensity of antibody binding to polysaccharide-coupled beads; higher = stronger binding
# [1] = biological target: pneumococcal polysaccharide Pn47A
# [2] = biological target: pneumococcal polysaccharide Pn47F
# [3] = biological target: pneumococcal polysaccharide Pn48
# [4] = biological target: pneumococcal polysaccharide Pn5
# [5] = biological target: pneumococcal polysaccharide Pn6A
# [6] = biological target: pneumococcal polysaccharide Pn6B
# [7] = biological target: pneumococcal polysaccharide Pn6C
# [8] = biological target: pneumococcal polysaccharide Pn6D
# [9] = biological target: pneumococcal polysaccharide Pn7A
# [10] = biological target: pneumococcal polysaccharide Pn7B
# [11] = biological target: pneumococcal polysaccharide Pn7C
# [12] = biological target: pneumococcal polysaccharide Pn7F
# [13] = biological target: pneumococcal polysaccharide Pn8
# [14] = biological target: pneumococcal polysaccharide Pn9A
# [15] = biological target: pneumococcal polysaccharide Pn9L
# [16] = biological target: pneumococcal polysaccharide Pn9N
# [17] = biological target: pneumococcal polysaccharide Pn9V
# [18] = biological target: pneumococcal polysaccharide C-Poly-1
# [19] = biological target: pneumococcal polysaccharide C-Poly-2
# [20] = biological target: pneumococcal polysaccharide Pn1
# [21] = biological target: pneumococcal polysaccharide Pn10A
# [22] = antibody concentration 2337.65 ng/mL
# [23] = antibody concentration 12500 ng/mL
# [24] = antibody concentration 0.1 ng/mL
# [25] = antibody concentration 0.534724 ng/mL
# [26] = antibody concentration 2.8593 ng/mL
# [27] = antibody concentration 15.2894 ng/mL
# [28] = antibody concentration 81.7561 ng/mL
# [29] = antibody concentration 437.17 ng/mL
binder,measurement,setting,value
B1,fluorescence intensity,[1]; [22],27.5 MFI
same,fluorescence intensity,[1]; [23],89.5 MFI
same,fluorescence intensity,[2]; [24],10.5 MFI
same,fluorescence intensity,[2]; [25],11 MFI
same,fluorescence intensity,[2]; [26],12 MFI
same,fluorescence intensity,[2]; [27],12.5 MFI
same,fluorescence intensity,[2]; [28],13 MFI
same,fluorescence intensity,[2]; [29],19 MFI
same,fluorescence intensity,[2]; [22],67 MFI
same,fluorescence intensity,[2]; [23],371 MFI
same,fluorescence intensity,[3]; [24],22.2 MFI
same,fluorescence intensity,[3]; [25],22.5 MFI
same,fluorescence intensity,[3]; [26],20.5 MFI
same,fluorescence intensity,[3]; [27],22 MFI
same,fluorescence intensity,[3]; [28],25 MFI
same,fluorescence intensity,[3]; [29],31.2 MFI
same,fluorescence intensity,[3]; [22],50 MFI
same,fluorescence intensity,[3]; [23],152 MFI
same,fluorescence intensity,[4]; [24],8.5 MFI
same,fluorescence intensity,[4]; [25],9 MFI
same,fluorescence intensity,[4]; [26],9.5 MFI
same,fluorescence intensity,[4]; [27],9.5 MFI
same,fluorescence intensity,[4]; [28],9.75 MFI
same,fluorescence intensity,[4]; [29],17 MFI
same,fluorescence intensity,[4]; [22],63.5 MFI
same,fluorescence intensity,[4]; [23],402 MFI
same,fluorescence intensity,[5]; [24],21.2 MFI
same,fluorescence intensity,[5]; [25],22.5 MFI
same,fluorescence intensity,[5]; [26],22.5 MFI
same,fluorescence intensity,[5]; [27],22 MFI
same,fluorescence intensity,[5]; [28],24 MFI
same,fluorescence intensity,[5]; [29],26.5 MFI
same,fluorescence intensity,[5]; [22],35.5 MFI
same,fluorescence intensity,[5]; [23],86.8 MFI
same,fluorescence intensity,[6]; [24],20.5 MFI
same,fluorescence intensity,[6]; [25],18.8 MFI
same,fluorescence intensity,[6]; [26],21 MFI
same,fluorescence intensity,[6]; [27],22 MFI
same,fluorescence intensity,[6]; [28],19 MFI
same,fluorescence intensity,[6]; [29],24.5 MFI
same,fluorescence intensity,[6]; [22],32.2 MFI
same,fluorescence intensity,[6]; [23],74.5 MFI
same,fluorescence intensity,[7]; [24],19.5 MFI
same,fluorescence intensity,[7]; [25],18 MFI
same,fluorescence intensity,[7]; [26],18 MFI
same,fluorescence intensity,[7]; [27],17.5 MFI
same,fluorescence intensity,[7]; [28],17.5 MFI
same,fluorescence intensity,[7]; [29],21.8 MFI
same,fluorescence intensity,[7]; [22],42.2 MFI
same,fluorescence intensity,[7]; [23],82 MFI
same,fluorescence intensity,[8]; [24],15.5 MFI
same,fluorescence intensity,[8]; [25],19.2 MFI
same,fluorescence intensity,[8]; [26],19.8 MFI
same,fluorescence intensity,[8]; [27],17.5 MFI
same,fluorescence intensity,[8]; [28],16.5 MFI
same,fluorescence intensity,[8]; [29],20.8 MFI
same,fluorescence intensity,[8]; [22],24 MFI
same,fluorescence intensity,[8]; [23],40.8 MFI
same,fluorescence intensity,[9]; [24],19.5 MFI
same,fluorescence intensity,[9]; [25],19.8 MFI
same,fluorescence intensity,[9]; [26],19.5 MFI
same,fluorescence intensity,[9]; [27],20.5 MFI
same,fluorescence intensity,[9]; [28],20.2 MFI
same,fluorescence intensity,[9]; [29],28.5 MFI
same,fluorescence intensity,[9]; [22],145 MFI
same,fluorescence intensity,[9]; [23],1140 MFI
same,fluorescence intensity,[10]; [24],17.8 MFI
same,fluorescence intensity,[10]; [25],17.8 MFI
same,fluorescence intensity,[10]; [26],17.2 MFI
same,fluorescence intensity,[10]; [27],16 MFI
same,fluorescence intensity,[10]; [28],17 MFI
same,fluorescence intensity,[10]; [29],19.5 MFI
same,fluorescence intensity,[10]; [22],31.5 MFI
same,fluorescence intensity,[10]; [23],130 MFI
same,fluorescence intensity,[11]; [24],18.2 MFI
same,fluorescence intensity,[11]; [25],15.5 MFI
same,fluorescence intensity,[11]; [26],16.2 MFI
same,fluorescence intensity,[11]; [27],15 MFI
same,fluorescence intensity,[11]; [28],14.5 MFI
same,fluorescence intensity,[11]; [29],17.2 MFI
same,fluorescence intensity,[11]; [22],26.2 MFI
same,fluorescence intensity,[11]; [23],120 MFI
same,fluorescence intensity,[12]; [24],14 MFI
same,fluorescence intensity,[12]; [25],14 MFI
same,fluorescence intensity,[12]; [26],14 MFI
same,fluorescence intensity,[12]; [27],16 MFI
same,fluorescence intensity,[12]; [28],17.5 MFI
same,fluorescence intensity,[12]; [29],32 MFI
same,fluorescence intensity,[12]; [22],133 MFI
same,fluorescence intensity,[12]; [23],870 MFI
same,fluorescence intensity,[13]; [24],22.2 MFI
same,fluorescence intensity,[13]; [25],22.2 MFI
same,fluorescence intensity,[13]; [26],23.8 MFI
same,fluorescence intensity,[13]; [27],23 MFI
same,fluorescence intensity,[13]; [28],24.2 MFI
same,fluorescence intensity,[13]; [29],27.5 MFI
same,fluorescence intensity,[13]; [22],42 MFI
same,fluorescence intensity,[13]; [23],124 MFI
same,fluorescence intensity,[14]; [24],21 MFI
same,fluorescence intensity,[14]; [25],19 MFI
same,fluorescence intensity,[14]; [26],20 MFI
same,fluorescence intensity,[14]; [27],18.5 MFI
same,fluorescence intensity,[14]; [28],20.5 MFI
same,fluorescence intensity,[14]; [29],21 MFI
same,fluorescence intensity,[14]; [22],43.5 MFI
same,fluorescence intensity,[14]; [23],196 MFI
same,fluorescence intensity,[15]; [24],18.8 MFI
same,fluorescence intensity,[15]; [25],17 MFI
same,fluorescence intensity,[15]; [26],17 MFI
same,fluorescence intensity,[15]; [27],17 MFI
same,fluorescence intensity,[15]; [28],16.8 MFI
same,fluorescence intensity,[15]; [29],20.2 MFI
same,fluorescence intensity,[15]; [22],28.2 MFI
same,fluorescence intensity,[15]; [23],77.2 MFI
same,fluorescence intensity,[16]; [24],17.5 MFI
same,fluorescence intensity,[16]; [25],15.2 MFI
same,fluorescence intensity,[16]; [26],14 MFI
same,fluorescence intensity,[16]; [27],15.5 MFI
same,fluorescence intensity,[16]; [28],16.5 MFI
same,fluorescence intensity,[16]; [29],16.5 MFI
same,fluorescence intensity,[16]; [22],30.2 MFI
same,fluorescence intensity,[16]; [23],140 MFI
same,fluorescence intensity,[17]; [24],14.8 MFI
same,fluorescence intensity,[17]; [25],15 MFI
same,fluorescence intensity,[17]; [26],15.2 MFI
same,fluorescence intensity,[17]; [27],15 MFI
same,fluorescence intensity,[17]; [28],15.5 MFI
same,fluorescence intensity,[17]; [29],18.2 MFI
same,fluorescence intensity,[17]; [22],25 MFI
same,fluorescence intensity,[17]; [23],50.2 MFI
B2,fluorescence intensity,[18]; [24],26 MFI
same,fluorescence intensity,[18]; [25],26.5 MFI
same,fluorescence intensity,[18]; [26],25.2 MFI
same,fluorescence intensity,[18]; [27],25.5 MFI
same,fluorescence intensity,[18]; [28],27 MFI
same,fluorescence intensity,[18]; [29],27 MFI
same,fluorescence intensity,[18]; [22],32.8 MFI
same,fluorescence intensity,[18]; [23],106 MFI
same,fluorescence intensity,[19]; [24],19.8 MFI
same,fluorescence intensity,[19]; [25],20.5 MFI
same,fluorescence intensity,[19]; [26],20 MFI
same,fluorescence intensity,[19]; [27],20 MFI
same,fluorescence intensity,[19]; [28],19 MFI
same,fluorescence intensity,[19]; [29],24.2 MFI
same,fluorescence intensity,[19]; [22],28 MFI
same,fluorescence intensity,[19]; [23],87.5 MFI
same,fluorescence intensity,[20]; [24],13 MFI
same,fluorescence intensity,[20]; [25],15 MFI
same,fluorescence intensity,[20]; [26],13.5 MFI
same,fluorescence intensity,[20]; [27],13.5 MFI
same,fluorescence intensity,[20]; [28],15.2 MFI
same,fluorescence intensity,[20]; [29],15 MFI
same,fluorescence intensity,[20]; [22],18.5 MFI
same,fluorescence intensity,[20]; [23],30.2 MFI
same,fluorescence intensity,[21]; [24],27 MFI
same,fluorescence intensity,[21]; [25],26.5 MFI
same,fluorescence intensity,[21]; [26],27.5 MFI
same,fluorescence intensity,[21]; [27],26.8 MFI
same,fluorescence intensity,[21]; [28],28.5 MFI
same,fluorescence intensity,[21]; [29],27 MFI

# 29 entries from above, with tabs.
binder	measurement	setting	value
B1	fluorescence intensity	[3]; [22]	50 MFI
same	fluorescence intensity	[3]; [23]	152 MFI
same	fluorescence intensity	[4]; [24]	8.5 MFI
same	fluorescence intensity	[4]; [25]	9 MFI
same	fluorescence intensity	[4]; [26]	9.5 MFI
same	fluorescence intensity	[4]; [27]	9.5 MFI
same	fluorescence intensity	[4]; [28]	9.75 MFI
same	fluorescence intensity	[4]; [29]	17 MFI
same	fluorescence intensity	[4]; [22]	63.5 MFI
same	fluorescence intensity	[4]; [23]	402 MFI
same	fluorescence intensity	[5]; [24]	21.2 MFI
same	fluorescence intensity	[5]; [25]	22.5 MFI
same	fluorescence intensity	[5]; [26]	22.5 MFI
same	fluorescence intensity	[5]; [27]	22 MFI
same	fluorescence intensity	[5]; [28]	24 MFI
same	fluorescence intensity	[5]; [29]	26.5 MFI
same	fluorescence intensity	[5]; [22]	35.5 MFI
same	fluorescence intensity	[5]; [23]	86.8 MFI
same	fluorescence intensity	[6]; [24]	20.5 MFI
same	fluorescence intensity	[6]; [25]	18.8 MFI
same	fluorescence intensity	[6]; [26]	21 MFI
same	fluorescence intensity	[6]; [27]	22 MFI
same	fluorescence intensity	[6]; [28]	19 MFI
same	fluorescence intensity	[6]; [29]	24.5 MFI
same	fluorescence intensity	[6]; [22]	32.2 MFI
same	fluorescence intensity	[6]; [23]	74.5 MFI
same	fluorescence intensity	[7]; [24]	19.5 MFI
same	fluorescence intensity	[7]; [25]	18 MFI
same	fluorescence intensity	[7]; [26]	18 MFI
